Results deposited as PubChem BioAssay AID1259254 (NCATS, 2017)
Aim: 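Finding genes that stop cells copying their DNA twice in one cycle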 (primary screen). Cells: human HCT116 colorectal cancer cells. Reagents: single siRNA against human genes. Timing: 3 days. Detection: 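Imaged Hoechst DNA stain sorts each cell into a cycle phase by DNA amount; per plate, G2 fraction set to 0% for non-targeting and 100% for GMNN siRNA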. Reading the numbers: G2 robust z-score: higher = more G2 cells, more excess DNA replication. Hit rule: 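Active siRNAs have a G2 robust z of 5 or more median absolute deviations over the median, which in these data means about 38% or higher of GMNN control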.
The whole screen tested about 59,000 reagents; shown is a part drawn at random. Over the whole deposit, about 1,550 (2.6%) are marked active. 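G2 share is only a proxy for re-replication; each gene was hit by three separate siRNAs, and active genes were retested.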 A number with no mark means an inactive call. Reagents against one gene are numbered here. Not all columns of the deposit are shown. Not given: the amount of reagent.

Target gene	siRNA no.	G2 robust z-score
DCK (GeneID 1633)	1	-0.181
DCK (GeneID 1633)	2	-1.32
DCK (GeneID 1633)	3	0.689
KSR2 (GeneID 283455)	1	1.27
KSR2 (GeneID 283455)	2	-0.646
KSR2 (GeneID 283455)	3	-0.821
RXFP2 (GeneID 122042)	1	0.281
RXFP2 (GeneID 122042)	2	0.0192
RXFP2 (GeneID 122042)	3	-0.982
C1orf94 (GeneID 84970)	1	1.68
C1orf94 (GeneID 84970)	2	-0.518
C1orf94 (GeneID 84970)	3	0.377
MAGI2 (GeneID 9863)	1	4.69
MAGI2 (GeneID 9863)	2	-1.24
MAGI2 (GeneID 9863)	3	0.76
NOL11 (GeneID 25926)	1	1.78
NOL11 (GeneID 25926)	2	1.28
NOL11 (GeneID 25926)	3	1.23
PLAAT3 (GeneID 11145)	1	-0.313
PLAAT3 (GeneID 11145)	2	1
PLAAT3 (GeneID 11145)	3	-1.06
ATOX1 (GeneID 475)	1	0.829
ATOX1 (GeneID 475)	2	1.53
ATOX1 (GeneID 475)	3	-0.803
LRATD2 (GeneID 157638)	1	4.08
LRATD2 (GeneID 157638)	2	2.81
LRATD2 (GeneID 157638)	3	-0.485
UNCX (GeneID 340260)	1	0.347
UNCX (GeneID 340260)	2	-1.22
UNCX (GeneID 340260)	3	1.44
LYZL4 (GeneID 131375)	1	1
LYZL4 (GeneID 131375)	2	-0.494
LYZL4 (GeneID 131375)	3	0.465
FLJ46838 (retired record) (GeneID 440865)	1	-0.219
FLJ46838 (retired record) (GeneID 440865)	2	-0.456
FLJ46838 (retired record) (GeneID 440865)	3	1.58
TBX20 (GeneID 57057)	1	3.91
TBX20 (GeneID 57057)	2	-0.728
TBX20 (GeneID 57057)	3	5.7 (active)
SLC6A18 (GeneID 348932)	1	1.14
SLC6A18 (GeneID 348932)	2	0.651
SLC6A18 (GeneID 348932)	3	-0.609
LINC00336 (GeneID 401253)	1	1.19
LINC00336 (GeneID 401253)	2	2.97
LINC00336 (GeneID 401253)	3	0.237
DNAAF6 (GeneID 139212)	1	1.68
DNAAF6 (GeneID 139212)	2	0.277
DNAAF6 (GeneID 139212)	3	1.39
PIGF (GeneID 5281)	1	1.67
PIGF (GeneID 5281)	2	1.02
PIGF (GeneID 5281)	3	5.61 (active)
HLA-E (GeneID 3133)	1	1
HLA-E (GeneID 3133)	2	-0.329
HLA-E (GeneID 3133)	3	-0.499
IFITM5 (GeneID 387733)	1	-0.357
IFITM5 (GeneID 387733)	2	2.08
IFITM5 (GeneID 387733)	3	-0.891
IRS1 (GeneID 3667)	1	3.24
IRS1 (GeneID 3667)	2	7.28 (active)
IRS1 (GeneID 3667)	3	-0.173
PPP3CA-DT (GeneID 90024)	1	-0.00486
PPP3CA-DT (GeneID 90024)	2	-1.13
PPP3CA-DT (GeneID 90024)	3	-0.65
DHX36 (GeneID 170506)	1	-0.673
DHX36 (GeneID 170506)	2	1.33
DHX36 (GeneID 170506)	3	-0.121
DRC9 (GeneID 84223)	1	-0.529
DRC9 (GeneID 84223)	2	1.8
DRC9 (GeneID 84223)	3	-0.137
